# Laboratory results published in the supplement of paper PMC7666118.
# Protein sequences, listed by entry. Tags and fused reporters are not part of them. Lines headed by an entry give the natural chain unless they say otherwise; changes in a name come on top.
# UniProt Q9NS87: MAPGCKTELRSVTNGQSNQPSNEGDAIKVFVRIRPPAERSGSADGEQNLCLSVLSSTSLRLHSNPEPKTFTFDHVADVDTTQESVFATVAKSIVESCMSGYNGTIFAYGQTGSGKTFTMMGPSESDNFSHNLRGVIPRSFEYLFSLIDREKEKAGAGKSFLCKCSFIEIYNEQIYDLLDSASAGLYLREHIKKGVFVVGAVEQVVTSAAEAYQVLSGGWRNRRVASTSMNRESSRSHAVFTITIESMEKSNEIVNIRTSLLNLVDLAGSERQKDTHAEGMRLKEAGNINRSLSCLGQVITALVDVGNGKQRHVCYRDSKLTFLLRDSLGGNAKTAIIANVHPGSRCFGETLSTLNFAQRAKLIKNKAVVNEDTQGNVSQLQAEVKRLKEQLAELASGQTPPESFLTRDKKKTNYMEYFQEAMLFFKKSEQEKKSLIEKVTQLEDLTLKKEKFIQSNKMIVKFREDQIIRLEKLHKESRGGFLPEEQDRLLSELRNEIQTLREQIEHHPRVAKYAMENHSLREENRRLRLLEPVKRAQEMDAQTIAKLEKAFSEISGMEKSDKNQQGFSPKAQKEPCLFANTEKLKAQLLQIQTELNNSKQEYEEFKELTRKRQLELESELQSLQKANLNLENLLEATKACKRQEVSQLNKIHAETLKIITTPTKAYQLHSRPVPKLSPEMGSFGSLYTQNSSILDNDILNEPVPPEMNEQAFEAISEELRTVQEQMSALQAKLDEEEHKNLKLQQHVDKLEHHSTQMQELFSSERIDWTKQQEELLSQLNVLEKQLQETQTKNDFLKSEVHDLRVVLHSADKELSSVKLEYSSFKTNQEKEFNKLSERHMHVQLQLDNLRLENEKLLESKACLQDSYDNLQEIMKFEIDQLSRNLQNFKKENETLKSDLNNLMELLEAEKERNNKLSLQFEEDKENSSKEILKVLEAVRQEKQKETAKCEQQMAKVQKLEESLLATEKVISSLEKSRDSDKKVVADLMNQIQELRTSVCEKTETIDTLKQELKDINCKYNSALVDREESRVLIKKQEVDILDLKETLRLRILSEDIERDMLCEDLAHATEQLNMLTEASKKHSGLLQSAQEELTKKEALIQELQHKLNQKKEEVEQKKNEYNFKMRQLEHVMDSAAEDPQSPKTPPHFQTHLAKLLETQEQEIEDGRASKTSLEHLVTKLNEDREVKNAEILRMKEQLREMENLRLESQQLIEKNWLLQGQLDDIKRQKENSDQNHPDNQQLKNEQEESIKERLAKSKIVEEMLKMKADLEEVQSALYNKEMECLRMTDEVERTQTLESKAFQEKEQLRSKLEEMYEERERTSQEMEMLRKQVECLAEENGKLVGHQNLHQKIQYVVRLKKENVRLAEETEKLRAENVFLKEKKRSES
# UniProt Q9NV88, whole entry: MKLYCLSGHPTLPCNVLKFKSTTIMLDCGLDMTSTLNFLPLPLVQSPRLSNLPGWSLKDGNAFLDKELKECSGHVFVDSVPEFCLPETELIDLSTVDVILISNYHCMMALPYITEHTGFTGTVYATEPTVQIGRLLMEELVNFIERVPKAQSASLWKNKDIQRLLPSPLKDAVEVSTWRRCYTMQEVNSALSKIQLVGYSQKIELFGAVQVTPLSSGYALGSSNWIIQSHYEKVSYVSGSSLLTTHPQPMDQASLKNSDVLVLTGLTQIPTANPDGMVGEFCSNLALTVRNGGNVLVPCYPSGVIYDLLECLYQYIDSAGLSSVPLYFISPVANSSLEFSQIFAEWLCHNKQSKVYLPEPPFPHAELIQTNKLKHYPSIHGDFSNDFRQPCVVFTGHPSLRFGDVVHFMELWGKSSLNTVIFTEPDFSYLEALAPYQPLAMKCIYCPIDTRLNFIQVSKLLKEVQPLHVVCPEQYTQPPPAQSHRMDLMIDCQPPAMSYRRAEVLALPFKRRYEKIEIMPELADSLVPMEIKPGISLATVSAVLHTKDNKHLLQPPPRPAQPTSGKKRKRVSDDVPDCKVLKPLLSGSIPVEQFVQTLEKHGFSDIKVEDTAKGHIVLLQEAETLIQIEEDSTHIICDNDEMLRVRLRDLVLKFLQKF
# UniProt Q68E01, whole entry: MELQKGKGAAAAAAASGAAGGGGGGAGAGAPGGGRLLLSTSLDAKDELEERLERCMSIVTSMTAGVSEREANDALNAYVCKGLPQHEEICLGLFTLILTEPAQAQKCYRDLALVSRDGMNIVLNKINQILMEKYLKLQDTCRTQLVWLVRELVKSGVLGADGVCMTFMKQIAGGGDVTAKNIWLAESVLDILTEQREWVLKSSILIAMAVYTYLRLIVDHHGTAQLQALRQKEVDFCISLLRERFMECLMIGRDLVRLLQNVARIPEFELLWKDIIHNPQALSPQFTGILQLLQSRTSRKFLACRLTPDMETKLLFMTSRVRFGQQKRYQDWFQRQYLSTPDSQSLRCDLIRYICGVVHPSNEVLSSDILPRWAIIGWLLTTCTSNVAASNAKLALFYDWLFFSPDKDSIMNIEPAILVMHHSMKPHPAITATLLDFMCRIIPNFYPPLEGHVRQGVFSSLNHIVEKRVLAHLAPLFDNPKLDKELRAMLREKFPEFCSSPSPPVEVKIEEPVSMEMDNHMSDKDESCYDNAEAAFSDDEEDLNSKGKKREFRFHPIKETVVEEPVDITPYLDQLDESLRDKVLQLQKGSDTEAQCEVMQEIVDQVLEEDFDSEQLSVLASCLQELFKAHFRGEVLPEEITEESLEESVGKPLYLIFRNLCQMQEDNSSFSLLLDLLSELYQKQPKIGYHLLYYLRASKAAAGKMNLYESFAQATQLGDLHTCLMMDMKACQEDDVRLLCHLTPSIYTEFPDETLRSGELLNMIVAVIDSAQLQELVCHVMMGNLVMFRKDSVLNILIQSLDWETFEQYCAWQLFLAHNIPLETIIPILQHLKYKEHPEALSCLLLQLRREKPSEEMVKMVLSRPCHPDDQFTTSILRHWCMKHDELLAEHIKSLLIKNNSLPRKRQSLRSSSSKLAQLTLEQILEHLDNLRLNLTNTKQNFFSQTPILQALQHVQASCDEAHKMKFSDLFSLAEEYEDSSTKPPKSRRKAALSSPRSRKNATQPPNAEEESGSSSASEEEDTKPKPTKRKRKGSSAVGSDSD
# UniProt Q96CX2: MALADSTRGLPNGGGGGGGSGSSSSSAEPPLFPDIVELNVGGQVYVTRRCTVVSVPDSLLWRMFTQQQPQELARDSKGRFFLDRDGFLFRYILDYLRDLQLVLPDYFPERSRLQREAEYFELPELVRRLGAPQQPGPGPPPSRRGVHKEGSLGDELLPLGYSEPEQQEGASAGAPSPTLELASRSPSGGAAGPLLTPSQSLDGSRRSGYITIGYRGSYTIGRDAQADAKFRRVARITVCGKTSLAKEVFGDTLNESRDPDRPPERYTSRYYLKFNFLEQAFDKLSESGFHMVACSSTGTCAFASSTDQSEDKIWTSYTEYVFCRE
# UniProt P06756, whole entry: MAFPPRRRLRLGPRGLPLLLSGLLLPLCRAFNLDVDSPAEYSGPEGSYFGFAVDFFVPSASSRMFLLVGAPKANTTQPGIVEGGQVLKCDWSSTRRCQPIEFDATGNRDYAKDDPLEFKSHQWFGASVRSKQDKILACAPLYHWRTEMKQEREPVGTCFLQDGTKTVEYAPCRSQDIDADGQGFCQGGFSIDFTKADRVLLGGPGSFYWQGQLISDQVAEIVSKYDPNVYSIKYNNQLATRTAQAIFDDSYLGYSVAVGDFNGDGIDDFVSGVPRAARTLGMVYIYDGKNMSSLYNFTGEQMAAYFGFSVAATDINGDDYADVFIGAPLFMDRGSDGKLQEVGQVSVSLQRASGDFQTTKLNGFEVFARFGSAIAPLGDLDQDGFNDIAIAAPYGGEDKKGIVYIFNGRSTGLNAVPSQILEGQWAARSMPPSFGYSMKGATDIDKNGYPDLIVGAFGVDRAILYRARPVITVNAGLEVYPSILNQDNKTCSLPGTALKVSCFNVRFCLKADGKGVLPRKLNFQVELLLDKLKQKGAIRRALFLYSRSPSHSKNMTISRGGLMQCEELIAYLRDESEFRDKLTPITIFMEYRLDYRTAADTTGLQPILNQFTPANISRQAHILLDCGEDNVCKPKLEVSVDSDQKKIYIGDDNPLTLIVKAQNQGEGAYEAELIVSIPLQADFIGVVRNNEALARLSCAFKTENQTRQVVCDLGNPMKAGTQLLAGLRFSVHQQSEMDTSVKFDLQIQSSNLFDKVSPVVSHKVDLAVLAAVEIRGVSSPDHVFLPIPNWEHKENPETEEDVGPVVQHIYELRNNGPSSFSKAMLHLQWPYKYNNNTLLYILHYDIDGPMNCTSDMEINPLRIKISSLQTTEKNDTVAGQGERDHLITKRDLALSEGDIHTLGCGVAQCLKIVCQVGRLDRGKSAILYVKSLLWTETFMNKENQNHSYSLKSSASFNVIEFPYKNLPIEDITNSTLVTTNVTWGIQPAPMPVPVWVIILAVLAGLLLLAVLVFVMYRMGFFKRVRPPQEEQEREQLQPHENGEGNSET
# UniProt Q9NWZ3, whole entry: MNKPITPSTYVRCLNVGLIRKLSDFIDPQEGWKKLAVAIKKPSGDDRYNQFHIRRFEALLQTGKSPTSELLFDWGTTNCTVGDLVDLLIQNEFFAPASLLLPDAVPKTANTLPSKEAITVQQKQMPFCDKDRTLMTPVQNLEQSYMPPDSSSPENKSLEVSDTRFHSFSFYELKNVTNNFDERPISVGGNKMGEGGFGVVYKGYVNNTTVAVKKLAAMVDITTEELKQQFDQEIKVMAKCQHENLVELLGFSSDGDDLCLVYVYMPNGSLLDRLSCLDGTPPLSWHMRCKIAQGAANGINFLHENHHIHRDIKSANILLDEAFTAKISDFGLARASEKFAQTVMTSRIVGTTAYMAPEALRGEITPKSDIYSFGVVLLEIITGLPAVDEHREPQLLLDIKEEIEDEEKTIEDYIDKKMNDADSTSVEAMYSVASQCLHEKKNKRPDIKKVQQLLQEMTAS
# UniProt Q969R8: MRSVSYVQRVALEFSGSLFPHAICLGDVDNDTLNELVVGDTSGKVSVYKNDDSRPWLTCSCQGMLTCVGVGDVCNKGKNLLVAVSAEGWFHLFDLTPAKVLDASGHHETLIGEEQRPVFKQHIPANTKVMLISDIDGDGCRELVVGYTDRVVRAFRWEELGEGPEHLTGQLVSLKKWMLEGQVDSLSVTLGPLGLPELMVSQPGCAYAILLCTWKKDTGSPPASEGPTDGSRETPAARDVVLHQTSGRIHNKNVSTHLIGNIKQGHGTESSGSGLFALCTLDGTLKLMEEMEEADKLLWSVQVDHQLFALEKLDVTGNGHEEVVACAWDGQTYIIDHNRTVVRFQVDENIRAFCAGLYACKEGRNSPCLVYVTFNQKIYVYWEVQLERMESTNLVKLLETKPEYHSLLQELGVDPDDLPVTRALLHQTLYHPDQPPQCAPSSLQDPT
# UniProt P13612, whole entry: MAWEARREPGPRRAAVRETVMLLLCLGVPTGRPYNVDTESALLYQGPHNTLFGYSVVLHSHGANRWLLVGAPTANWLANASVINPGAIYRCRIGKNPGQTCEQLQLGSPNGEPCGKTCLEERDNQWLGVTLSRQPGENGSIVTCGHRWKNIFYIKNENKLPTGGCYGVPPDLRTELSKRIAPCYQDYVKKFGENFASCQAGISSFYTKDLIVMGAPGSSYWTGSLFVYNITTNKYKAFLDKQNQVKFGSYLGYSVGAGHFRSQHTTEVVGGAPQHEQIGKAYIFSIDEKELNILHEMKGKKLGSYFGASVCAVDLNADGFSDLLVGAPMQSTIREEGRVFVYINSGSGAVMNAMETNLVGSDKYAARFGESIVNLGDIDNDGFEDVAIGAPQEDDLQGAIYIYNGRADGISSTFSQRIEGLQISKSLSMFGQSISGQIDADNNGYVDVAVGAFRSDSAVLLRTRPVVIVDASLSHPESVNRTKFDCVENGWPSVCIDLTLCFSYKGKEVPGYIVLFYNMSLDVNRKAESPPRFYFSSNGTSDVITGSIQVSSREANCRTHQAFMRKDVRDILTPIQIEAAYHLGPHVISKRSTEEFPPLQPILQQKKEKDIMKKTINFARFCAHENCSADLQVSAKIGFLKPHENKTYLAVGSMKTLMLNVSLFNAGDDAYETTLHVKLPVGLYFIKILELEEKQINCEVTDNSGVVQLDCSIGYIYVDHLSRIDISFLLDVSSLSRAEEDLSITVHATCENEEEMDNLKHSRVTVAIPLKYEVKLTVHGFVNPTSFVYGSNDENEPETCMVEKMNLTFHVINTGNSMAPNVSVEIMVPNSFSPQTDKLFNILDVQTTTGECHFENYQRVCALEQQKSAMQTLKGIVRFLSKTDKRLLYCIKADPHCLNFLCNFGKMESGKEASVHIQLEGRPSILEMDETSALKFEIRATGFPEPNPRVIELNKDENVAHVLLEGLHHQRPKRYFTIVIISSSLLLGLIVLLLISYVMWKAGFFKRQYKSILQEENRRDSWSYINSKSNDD
# UniProt Q9BUE6: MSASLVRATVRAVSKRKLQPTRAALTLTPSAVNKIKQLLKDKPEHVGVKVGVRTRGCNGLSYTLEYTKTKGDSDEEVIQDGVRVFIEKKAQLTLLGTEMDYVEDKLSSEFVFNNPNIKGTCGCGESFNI
# Some of the results follow.
# Compound: COc1ccc(Cn2ccc3cc(C)c(C(=O)NO)cc32)cc1
# Assay: dose-dependent thermal stabilisation call (2D-TPP, DLPTP, 10% FDR) (binary (1 = stabilised)); higher = stabilised by the compound
# Conditions: system: HL-60 intact cells; concentration range 0.04-10 µM
# Protocol: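 2D thermal proteome profiling in intact HL-60 cells treated with BRD-3811 (0, 0.04, 0.29, 2, 10 uM) for 90 min at 37 C, then heated 3 min at one of 12 temperatures (42-63.9 C). Soluble protein was quantified by TMT10 MS. The value is the DLPTP call of the paper: dose-dependent thermal stabilisation over all temperatures at 10% FDR (F-test of a dose-response against a flat model); one experiment, one call per tested protein.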
row,Target,dose-dependent thermal stabilisation call
1,KIF21A (UniProt Q7Z4S6),inactive: 0
2,IGF2BP3 (UniProt O00425),inactive: 0
3,HSPE1 (UniProt P61604),inactive: 0
4,IL1RAP (UniProt Q9NPH3),inactive: 0
5,KIF15 (UniProt Q9NS87),inactive: 0
6,KIAA2013 (UniProt Q8IYS2),inactive: 0
7,KIAA0564 (UniProt A3KMH1),inactive: 0
8,ITM2C (UniProt Q9NQX7),inactive: 0
9,HYOU1 (UniProt Q9Y4L1),inactive: 0
10,JTB (UniProt O76095),inactive: 0
11,INTS9 (UniProt Q9NV88),inactive: 0
12,INTS3 (UniProt Q68E01),inactive: 0
13,KARS (UniProt Q15046),inactive: 0
14,KIAA0409 (UniProt O43159),inactive: 0
15,KIF2C (UniProt Q99661),inactive: 0
16,KCTD12 (UniProt Q96CX2),inactive: 0
17,ITPR3 (UniProt Q14573),inactive: 0
18,HVCN1 (UniProt Q96D96),inactive: 0

row,Target,dose-dependent thermal stabilisation call
1,ITGAV (UniProt P06756),inactive: 0
2,KIF5B (UniProt P33176),inactive: 0
3,IPO7 (UniProt O95373),inactive: 0
4,IRAK4 (UniProt Q9NWZ3),inactive: 0
5,IPO9 (UniProt Q96P70),inactive: 0
6,ITFG2 (UniProt Q969R8),inactive: 0
7,KDELC2 (UniProt Q7Z4H8),inactive: 0
8,IL27RA (UniProt Q6UWB1),inactive: 0
9,ITGA4 (UniProt P13612),inactive: 0
10,KIAA0528 (UniProt Q86YS7),inactive: 0
11,KIAA1967 (UniProt Q8N163),inactive: 0
12,KIAA1524 (UniProt Q8TCG1),inactive: 0
13,KIAA1949 (UniProt Q6NYC8),inactive: 0
14,KNTC1 (UniProt P50748),inactive: 0
15,IRAK3 (UniProt Q9Y616),inactive: 0
16,KLC1 (UniProt Q07866),inactive: 0
17,ISCA1 (UniProt Q9BUE6),inactive: 0
18,KHK (UniProt P50053),inactive: 0

# Given with bars between the fields: entries from further up
row | Target | dose-dependent thermal stabilisation call
3 | IPO7 (UniProt O95373) | inactive: 0
4 | IRAK4 (UniProt Q9NWZ3) | inactive: 0
